# Measured values as given in PubChem BioAssay (Tox21).
# Sequences of proteins named here, by UniProt entry; tags and fusion partners are left off.
# UniProt P28223, whole entry, looked up: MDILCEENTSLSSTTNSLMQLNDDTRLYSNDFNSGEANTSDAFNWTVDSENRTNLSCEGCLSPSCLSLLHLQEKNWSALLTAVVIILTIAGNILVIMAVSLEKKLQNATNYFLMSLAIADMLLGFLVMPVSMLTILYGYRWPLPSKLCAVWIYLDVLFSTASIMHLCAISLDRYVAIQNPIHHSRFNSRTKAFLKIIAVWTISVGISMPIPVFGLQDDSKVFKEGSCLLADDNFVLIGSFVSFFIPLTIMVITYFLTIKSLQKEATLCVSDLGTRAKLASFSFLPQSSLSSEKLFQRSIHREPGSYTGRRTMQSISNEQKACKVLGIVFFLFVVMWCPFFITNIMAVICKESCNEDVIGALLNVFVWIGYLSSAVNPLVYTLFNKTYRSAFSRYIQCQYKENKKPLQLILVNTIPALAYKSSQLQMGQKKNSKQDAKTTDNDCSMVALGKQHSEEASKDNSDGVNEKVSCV
# This list was built around the results that the source calls inconclusive (neither active nor inactive); the mix of calls is not that of the screen. Potencies of inconclusive entries are doubtful fits and often do not repeat. Active and inactive are the calls of the source. The call rests on the fitted dose curve.
# Target: 5-hydroxytryptamine receptor 2A (Homo sapiens) (UniProt P28223)
# Assay: 5-hydroxytryptamine receptor 2A (HTR2A) small molecule antagonists, cell-based qHTS assay (AID 1963586); further: nearly all actives have a fitted effect of over 45% in size
# Conditions: HTR2A-CHO cells, DOI-induced calcium flux, fluorescence; series mostly up to 61.5 µM
# Outline: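 CHO cells stably expressing human HTR2A were plated for 18 h at 37 C, then loaded with calcium dye for 1 h. Compounds were preincubated 5 min at room temperature before DOI (4 nM solution) was added. Kinetic fluorescence was read for 3 min.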
# Potency means the concentration at half of the fitted maximal effect.
row,SMILES,Potency
1,O=C(O)CNCC(=O)O,inconclusive: 0.1 nM [inhibitor]
2,CC(C)(C)NCCO,inactive
3,CC(C)(O)CCCC1=CCC(C=O)CC1 (centres undefined),"inconclusive: 400 nM [inhibitor, single point]"
4,c1ccc(-c2nc[nH]c2-c2ccccc2)cc1,active: 3650 nM
5,CCCCOC(=O)CC,inconclusive: 1.1 nM [inhibitor]
6,CC[N+]1(CC)CCC(=C(c2ccccc2)c2ccccc2)C1C (centres undefined),"inconclusive: 6.5 nM [inhibitor, full curve, poor fit]"
7,CC(=O)OCC(=O)[C@@]1(O)[C@H](OC(C)=O)C[C@H]2[C@@H]3CCC4=CC(=O)C=C[C@]4(C)[C@@]3(F)[C@@H](O)C[C@@]21C,"inconclusive: 23.1 nM [inhibitor, full curve, poor fit]"
8,O=c1[nH]c(=O)c2[nH]c(=O)[nH]c2[nH]1,"inconclusive: 188 nM [inhibitor, single point]"
9,CCN1CCC[C@H]1CNC(=O)c1c(O)c(Cl)cc(Cl)c1OC,active: 18300 nM
10,CC(C)CCCCCOC(=O)CS,active: 1880 nM
11,CC(O)CN(CCCN(C)C)CCCN(C)C (centres undefined),inactive
12,CO/N=C(/C(=O)N[C@@H]1C(=O)N2C(C(=O)O)=C(Cn3nnc(C)n3)CS[C@H]12)c1csc(N)n1,"inconclusive: 20500 nM [inhibitor, single point]"
13,O=C(O)c1ccc[n+]([O-])c1,"inconclusive: 183 nM [inhibitor, single point]"
14,O=C(Cn1ccnc1[N+](=O)[O-])NCc1ccccc1,inactive

# Reformatted: two of the compounds above
row	SMILES	Potency
5	CCCCOC(=O)CC	inconclusive: 1.1 nM [inhibitor]
6	CC[N+]1(CC)CCC(=C(c2ccccc2)c2ccccc2)C1C (centres undefined)	inconclusive: 6.5 nM [inhibitor, full curve, poor fit]
